This is an account of results in paper PMC2925899.

Protein sequences, listed by entry. Tags and fused reporters are not part of them. Lines headed by an entry give the natural chain unless they say otherwise; changes in a name come on top. Residues count along the entry.
UniProt Q13586, residues 23-685: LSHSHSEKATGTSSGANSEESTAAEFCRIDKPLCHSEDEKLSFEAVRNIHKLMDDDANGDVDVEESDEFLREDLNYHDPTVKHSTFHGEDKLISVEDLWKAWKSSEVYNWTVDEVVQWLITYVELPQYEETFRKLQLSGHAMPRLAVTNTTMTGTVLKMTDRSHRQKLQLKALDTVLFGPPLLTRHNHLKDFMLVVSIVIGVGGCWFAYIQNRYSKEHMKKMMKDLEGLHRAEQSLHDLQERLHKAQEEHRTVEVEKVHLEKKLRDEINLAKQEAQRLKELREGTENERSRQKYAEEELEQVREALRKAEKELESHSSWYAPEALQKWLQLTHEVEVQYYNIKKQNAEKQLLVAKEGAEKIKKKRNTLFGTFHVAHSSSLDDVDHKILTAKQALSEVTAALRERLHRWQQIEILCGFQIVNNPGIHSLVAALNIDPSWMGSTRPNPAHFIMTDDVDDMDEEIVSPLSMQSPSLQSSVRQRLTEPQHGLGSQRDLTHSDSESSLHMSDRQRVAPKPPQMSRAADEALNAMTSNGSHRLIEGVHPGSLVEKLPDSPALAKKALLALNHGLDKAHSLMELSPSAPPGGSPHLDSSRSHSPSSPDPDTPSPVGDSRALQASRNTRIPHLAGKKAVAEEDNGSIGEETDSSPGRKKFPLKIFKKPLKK
UniProt P98161, residues 3646-4303: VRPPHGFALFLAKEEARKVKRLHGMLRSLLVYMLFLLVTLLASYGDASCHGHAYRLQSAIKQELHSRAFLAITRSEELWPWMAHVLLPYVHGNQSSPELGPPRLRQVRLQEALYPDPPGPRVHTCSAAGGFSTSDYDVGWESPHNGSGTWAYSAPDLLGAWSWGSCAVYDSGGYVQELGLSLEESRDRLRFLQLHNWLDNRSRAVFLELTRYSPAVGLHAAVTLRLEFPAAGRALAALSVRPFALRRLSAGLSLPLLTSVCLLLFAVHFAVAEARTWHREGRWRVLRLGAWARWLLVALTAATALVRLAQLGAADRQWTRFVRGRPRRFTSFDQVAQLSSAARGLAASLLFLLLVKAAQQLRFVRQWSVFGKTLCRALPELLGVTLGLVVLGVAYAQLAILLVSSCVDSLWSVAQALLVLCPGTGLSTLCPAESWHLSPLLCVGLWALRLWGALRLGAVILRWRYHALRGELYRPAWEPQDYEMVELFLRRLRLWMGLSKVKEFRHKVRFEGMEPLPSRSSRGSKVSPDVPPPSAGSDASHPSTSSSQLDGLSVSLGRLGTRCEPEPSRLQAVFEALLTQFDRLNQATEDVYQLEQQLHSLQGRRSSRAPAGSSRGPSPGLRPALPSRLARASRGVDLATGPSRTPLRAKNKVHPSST

In one experiment the target is STIM1 (human) (UniProt Q13586). In words: co-IP; CHO cells transiently transfected with STIM1 and either the P100 or the CTF construct; lysate immunoprecipitated with anti-STIM1 antibody, blot probed with anti-PC1 CT antibody.
Experiment [1] has as its target Polycystin-1 cleavage product P100 (recombinant P100 construct starting at V3645) (human) (UniProt P98161). The experiment in a line: co-IP; CHO cells transiently transfected with STIM1 and P100, or STIM1 alone; Flag-tagged P100 immunoprecipitated with flag conjugated beads, blot probed with anti-STIM1 antibody.

Results are given in words; binding and its absence hold for the method and conditions named. In cells and extracts the contact can be indirect. Some binding calls cover weakened binding; strength is not graded here.

On to “Polycystin-1 cleavage product P100 (recombinant P100 construct starting at V3645) (from UniProt P98161-3 3645-4302) (domain or fragment)”, for which the binding entry in the experiment with STIM1 (human) is on record as “binds”.
On to STIM1 (from UniProt Q13586 23-685), for which the binding result in experiment [1] is given as “binds”.
